Results on 1 compound are retold here after publication PMC11044220 (ACS Omega, 2024).

The subject of the test is HepG2 liver cancer cell line. The note with it: read-out: IC50 (μM) HepG2, MTT assay, mean of three independent replicates ± SE.

`CN[C@@H]1C[C@H]2O[C@@](C)([C@@H]1OC)n1c3ccccc3c3c4c(c5c6ccccc6n2c5c31)C(=O)NC4` [STU, staurosporin, reference compound]: the IC50 amounted to 5.59 ± 0.27 µM.

By IC50 is commonly meant the concentration that gives 50% inhibition.
